Data source: PubChem BioAssay AID1224828 (NIAID, 2016)
This is one part, drawn at random, of about 17,000 deposited reagents. Over the whole deposit, 762 (4.5%) were called active. 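Active calls include both raised and lowered p65 entry, mostly lowered; wells with fewer than 50 cells lack a z-score.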 Raw values are not corrected between plates. Some reagents were tested in more than one well and are listed for each.

Test: 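Knock-downs that increase or decrease LPS-induced p65 nuclear translocation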 (primary screen)
System: mouse RAW264.7 G9 macrophage reporter cells (GFP-p65, Tnf promoter-mCherry)
Reagents: siRNA pool against mouse genes, 100 nM
Time to read-out: 2 days siRNA transfection, then 40 min LPS before fixation
Conditions: LPS (Salmonella minnesota R595) at 10 ng/ml
Measured: 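Microscopy ratio of nuclear to perinuclear-ring GFP-p65 signal, scaled to the plate median; gene score is the average of two replicate robust z-scores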
Direction: p65 translocation robust z-score: higher = more nuclear NF-kappaB p65 after LPS than the plate median; nuclear/cytoplasmic p65 ratio: higher = more nuclear NF-kappaB p65
Call rule: 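Called active when z exceeds 3.3 or falls under -1.56 (median of Tlr4 controls), giving activity score of at least 50; no calls for control wells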
Calls: active = hit (p65 shift raised or lowered); inactive = no clear change

| target | p65 translocation robust z-score | nuclear/cytoplasmic p65 ratio, rep 1 | nuclear/cytoplasmic p65 ratio, rep 2 | low cell count flag | outcome |
| --- | --- | --- | --- | --- | --- |
| Bola3 | – | 1.13 | 1.27 | fewer than 50 cells per well; well left out of scoring | inactive |
| Gcfc2 | 0.11 | 1.58 | 1.57 | enough cells to score | inactive |
| Acvr1b | – | 1.62 | 1.4 | fewer than 50 cells per well; well left out of scoring | inactive |
| Rnaseh1 | – | 1.16 | 1.07 | fewer than 50 cells per well; well left out of scoring | inactive |
| Gabrr2 | -0.96 | 1.3 | 1.25 | enough cells to score | inactive |
| Selenos | 2.37 | 2.07 | 1.82 | enough cells to score | inactive |
| Sh3bp1 | 0.35 | 1.44 | 1.3 | enough cells to score | inactive |
| Rab3d | -0.8 | 1.41 | 1.42 | enough cells to score | inactive |
| Appl1 | – | 1.83 | 1.35 | fewer than 50 cells per well; well left out of scoring | inactive |
| Appl1 | – | 1.23 | 1.13 | fewer than 50 cells per well; well left out of scoring | inactive |
| Twist1 | -0.81 | 1.39 | 1.39 | enough cells to score | inactive |
| C1s1 | 1.39 | 1.84 | 1.81 | enough cells to score | inactive |

Next part, starting with the last 2 of the part before.
| target | p65 translocation robust z-score | nuclear/cytoplasmic p65 ratio, rep 1 | nuclear/cytoplasmic p65 ratio, rep 2 | low cell count flag | outcome |
| --- | --- | --- | --- | --- | --- |
| Twist1 | -0.81 | 1.39 | 1.39 | enough cells to score | inactive |
| C1s1 | 1.39 | 1.84 | 1.81 | enough cells to score | inactive |
| Cux1 | 0.52 | 1.56 | 1.44 | enough cells to score | inactive |
| Actr3b | -0.03 | 1.59 | 1.63 | enough cells to score | inactive |
| Tbx4 | -0.41 | 1.53 | 1.4 | enough cells to score | inactive |
| Dcaf13 | 0.25 | 1.8 | 1.47 | enough cells to score | inactive |
| Carf | -0.07 | 1.59 | 1.62 | enough cells to score | inactive |
| Or4c114 | 1.02 | 1.86 | 1.69 | enough cells to score | inactive |
| Eif5 | 0.16 | 1.53 | 1.35 | enough cells to score | inactive |
| Il1rl1 | 0.12 | 1.44 | 1.44 | enough cells to score | inactive |
| Srsf19 | – | 1.24 | 1.15 | fewer than 50 cells per well; well left out of scoring | inactive |
| S100a10 | 0.64 | 1.58 | 1.63 | enough cells to score | inactive |
| Atp6v1e1 | -1.33 | 1.27 | 1.46 | enough cells to score | inactive |
| Gldc | 1.3 | 1.62 | 1.53 | enough cells to score | inactive |
